Data reported in paper doi:10.1101/2021.09.02.458805 (bioRxiv, 2021).
No constants are given. Whether binding was seen depends on the method and setting. For some assays here: In cells and extracts the contact can be indirect. Some binding calls cover weakened binding; strength is not graded here. Sequences can lack the tags named with a protein.

Sequences of proteins named here, by UniProt entry; tags and fusion partners are left off. A change or cut given only in a name is not applied to a line headed by its entry.
UniProt Q01329: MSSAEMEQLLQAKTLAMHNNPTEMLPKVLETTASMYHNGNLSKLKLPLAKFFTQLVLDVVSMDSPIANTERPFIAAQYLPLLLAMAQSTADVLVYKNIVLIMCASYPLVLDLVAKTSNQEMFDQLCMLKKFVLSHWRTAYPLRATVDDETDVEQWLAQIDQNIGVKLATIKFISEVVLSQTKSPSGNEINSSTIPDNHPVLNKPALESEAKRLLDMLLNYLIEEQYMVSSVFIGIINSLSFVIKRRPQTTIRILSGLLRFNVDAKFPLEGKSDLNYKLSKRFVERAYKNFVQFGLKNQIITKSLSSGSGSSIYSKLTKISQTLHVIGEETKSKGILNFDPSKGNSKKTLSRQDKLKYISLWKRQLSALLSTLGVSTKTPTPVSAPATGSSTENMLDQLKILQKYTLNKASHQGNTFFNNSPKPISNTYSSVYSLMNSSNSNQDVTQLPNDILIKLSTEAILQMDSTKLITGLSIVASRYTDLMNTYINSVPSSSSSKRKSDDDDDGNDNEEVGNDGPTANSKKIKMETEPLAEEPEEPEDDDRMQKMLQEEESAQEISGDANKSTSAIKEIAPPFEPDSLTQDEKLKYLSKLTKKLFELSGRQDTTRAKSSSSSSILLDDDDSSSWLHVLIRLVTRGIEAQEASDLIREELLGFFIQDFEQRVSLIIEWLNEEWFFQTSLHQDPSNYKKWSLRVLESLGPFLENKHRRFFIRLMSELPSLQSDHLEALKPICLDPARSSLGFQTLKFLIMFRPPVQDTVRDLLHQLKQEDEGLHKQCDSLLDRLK

How the values were obtained:
[1] = molecular target: T1, StrepII-tagged Mpe1 (S. cerevisiae) (UniProt P35728); assay: cross-linking
T1 sequence: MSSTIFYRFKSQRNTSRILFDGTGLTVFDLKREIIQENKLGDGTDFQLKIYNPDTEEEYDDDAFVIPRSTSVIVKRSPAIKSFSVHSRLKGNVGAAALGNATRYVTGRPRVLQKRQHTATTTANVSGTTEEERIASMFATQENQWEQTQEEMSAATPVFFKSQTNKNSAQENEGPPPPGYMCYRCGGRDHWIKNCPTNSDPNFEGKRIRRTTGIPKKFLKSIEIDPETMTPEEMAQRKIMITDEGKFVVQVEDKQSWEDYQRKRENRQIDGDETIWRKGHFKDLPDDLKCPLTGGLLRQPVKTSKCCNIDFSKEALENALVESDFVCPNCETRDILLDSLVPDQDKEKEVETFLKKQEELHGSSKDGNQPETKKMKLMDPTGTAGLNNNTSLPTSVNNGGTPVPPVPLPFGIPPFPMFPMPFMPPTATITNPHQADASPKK

[2] = molecular target: T1, StrepII-tagged Mpe1 (S. cerevisiae); assay: pull-down
[3] = molecular target: phosphatase module of CPF (Pta1, Pti1, Ssu72, Ref2-SII, Swd2, Glc7) (S. cerevisiae) (UniProt Q01329); assay: pull-down
[4] = molecular target: polymerase module-Cft2 complex (S. cerevisiae) (UniProt Q06632); assay: pull-down

B1: Cft2(S), residues 1-720 (domain or fragment, S. cerevisiae, UniProt Q12102 1-720, looked up)
chain: MTYKYNCCDDGSGTTVGSVVRFDNVTLLIDPGWNPSKVSYEQCIKYWEKVIPEIDVIILSQPTIECLGAHSLLYYNFTSHFISRIQVYATLPVINLGRVSTIDSYASAGVIGPYDTNKLDLEDIEISFDHIVPLKYSQLVDLRSRYDGLTLLAYNAGVCPGGSIWCISTYSEKLVYAKRWNHTRDNILNAASILDATGKPLSTLMRPSAIITTLDRFGSSQPFKKRSKIFKDTLKKGLSSDGSVIIPVDMSGKFLDLFTQVHELLFESTKINAHTQVPVLILSYARGRTLTYAKSMLEWLSPSLLKTWENRNNTSPFEIGSRIKIIAPNELSKYPGSKICFVSEVGALINEVIIKVGNSEKTTLILTKPSFECASSLDKILEIVEQDERNWKTFPEDGKSFLCDNYISIDTIKEEPLSKEETEAFKVQLKEKKRDRNKKILLVKRESKKLANGNAIIDDTNGERAMRNQDILVENVNGVPPIDHIMGGDEDDDEEEENDNLLNLLKDNSEKSAAKKNTEVPVDIIIQPSAASKHKMFPFNPAKIKKDDYGTVVDFTMFLPDDSDNVNQNSRKRPLKDGAKTTSPVNEEDNKNEEEDGYNMSDPISKRSKHRASRYSGFSGTGEAENFDNLDYLKIDKTLSKRTISTVNVQLKCSVVILNLQSLVDQRSASIIWPSLKSRKIVLSAPKQIQNEEITAKLIKKNIEVVNMPLNKIVEFSTTI
- binding [1]: no binding

B2: Cft1 (protein, UniProt Q06632 1-1357)
chain: MNVYDDVLDATVVSHSLATHFTTSDYEELLVVRTNILSVYRPTRDGKLYLTDEFKFHGLITDIGLIPQKDSPLSCLLLCTGVAKISILKFNTLTNSIDTLSLHYYEGKFKGKSLVELAKISTLRMDPGSSCALLFNNDIIAFLPFHVNKNDDDEEEEDEDENIDDSELIHSMNQKSQGTNTFNKRKRTKLGDKFTAPSVVLVASELYEGAKNIIDIQFLKNFTKPTIALLYQPKLVWAGNTTISKLPTQYVILTLNIQPAESATKIESTTIAFVKELPWDLHTIVPVSNGAIIVGTNELAFLDNTGVLQSTVLLNSFADKELQKTKIINNSSLEIMFREKNTTSIWIPSSKSKNGGSNNDETLLLMDLKSNIYYIQMEAEGRLLIKFDIFKLPIVNDLLKENSNPKCITRLNATNSNKNMDLFIGFGSGNALVLRLNNLKSTIETREAHNPSSGTNSLMDINDDDDEEMDDLYADEAPENGLTTNDSKGTVETVQPFDIELLSSLRNVGPITSLTVGKVSSIDDVVKGLPNPNKNEYSLVATSGNGSGSHLTVIQTSVQPEIELALKFISITQIWNLKIKGRDRYLITTDSTKSRSDIYESDNNFKLHKGGRLRRDATTVYISMFGEEKRIIQVTTNHLYLYDTHFRRLTTIKFDYEVIHVSVMDPYILVTVSRGDIKIFELEEKNKRKLLKVDLPEILNEMVITSGLILKSNMCNEFLIGLSKSQEEQLLFTFVTADNQIIFFTKDHNDRIFQLNGVDQLNESLYISTYQLGDEIVPDPSIKQVMINKLGHDNKEEYLTILTFGGEIYQYRKLPQRRSRFYRNVTRNDLAITGAPDNAYAKGVSSIERIMHYFPDYNGYSVIFVTGSVPYILIKEDDSTPKIFKFGNIPLVSVTPWSERSVMCVDDIKNARVYTLTTDNMYYGNKLPLKQIKISNVLDDYKTLQKLVYHERAQLFLVSYCKRVPYEALGEDGEKVIGYDENVPHAEGFQSGILLINPKSWKVIDKIDFPKNSVVNEMRSSMIQINSKTKRKREYIIAGVANATTEDTPPTGAFHIYDVIEVVPEPGKPDTNYKLKEIFQEEVSGTVSTVCEVSGRFMISQSQKVLVRDIQEDNSVIPVAFLDIPVFVTDSKSFGNLLIIGDAMQGFQFIGFDAEPYRMISLGRSMSKFQTMSLEFLVNGGDMYFAATDADRNVHVLKYAPDEPNSLSGQRLVHCSSFTLHSTNSCMMLLPRNEEFGSPQVPSFQNVGGQVDGSVFKIVPLSEEKYRRLYVIQQQIIDRELQLGGLNPRMERLANDFYQMGHSMRPMLDFNVIRRFCGLAIDRRKSIAQKAGRHAHFEAWRDIINIEFSMRSLCQGK
- binding [2]: binds

B3: Ysh1, untagged (enzyme, UniProt Q06224 1-779)
chain: MERTNTTTFKFFSLGGSNEVGRSCHILQYKGKTVMLDAGIHPAYQGLASLPFYDEFDLSKVDILLISHFHLDHAASLPYVMQRTNFQGRVFMTHPTKAIYRWLLRDFVRVTSIGSSSSSMGTKDEGLFSDEDLVDSFDKIETVDYHSTVDVNGIKFTAFHAGHVLGAAMFQIEIAGLRVLFTGDYSREVDRHLNSAEVPPLSSNVLIVESTFGTATHEPRLNRERKLTQLIHSTVMRGGRVLLPVFALGRAQEIMLILDEYWSQHADELGGGQVPIFYASNLAKKCMSVFQTYVNMMNDDIRKKFRDSQTNPFIFKNISYLRNLEDFQDFGPSVMLASPGMLQSGLSRDLLERWCPEDKNLVLITGYSIEGTMAKFIMLEPDTIPSINNPEITIPRRCQVEEISFAAHVDFQENLEFIEKISAPNIILVHGEANPMGRLKSALLSNFASLKGTDNEVHVFNPRNCVEVDLEFQGVKVAKAVGNIVNEIYKEENVEIKEEIAAKIEPIKEENEDNLDSQAEKGLVDEEEHKDIVVSGILVSDDKNFELDFLSLSDLREHHPDLSTTILRERQSVRVNCKKELIYWHILQMFGEAEVLQDDDRVTNQEPKVKEESKDNLTNTGKLILQIMGDIKLTIVNTLAVVEWTQDLMNDTVADSIIAILMNVDSAPASVKLSSHSCDDHDHNNVQSNAQGKIDEVERVKQISRLFKEQFGDCFTLFLNKDEYASNKEETITGVVTIGKSTAKIDFNNMKILECNSNPLKGRVESLLNIGGNLVTPLC
- binding [3]: binds
- binding [4]: no binding

B4: Cft2, full length, untagged (protein, UniProt Q12102 1-859)
chain: MTYKYNCCDDGSGTTVGSVVRFDNVTLLIDPGWNPSKVSYEQCIKYWEKVIPEIDVIILSQPTIECLGAHSLLYYNFTSHFISRIQVYATLPVINLGRVSTIDSYASAGVIGPYDTNKLDLEDIEISFDHIVPLKYSQLVDLRSRYDGLTLLAYNAGVCPGGSIWCISTYSEKLVYAKRWNHTRDNILNAASILDATGKPLSTLMRPSAIITTLDRFGSSQPFKKRSKIFKDTLKKGLSSDGSVIIPVDMSGKFLDLFTQVHELLFESTKINAHTQVPVLILSYARGRTLTYAKSMLEWLSPSLLKTWENRNNTSPFEIGSRIKIIAPNELSKYPGSKICFVSEVGALINEVIIKVGNSEKTTLILTKPSFECASSLDKILEIVEQDERNWKTFPEDGKSFLCDNYISIDTIKEEPLSKEETEAFKVQLKEKKRDRNKKILLVKRESKKLANGNAIIDDTNGERAMRNQDILVENVNGVPPIDHIMGGDEDDDEEEENDNLLNLLKDNSEKSAAKKNTEVPVDIIIQPSAASKHKMFPFNPAKIKKDDYGTVVDFTMFLPDDSDNVNQNSRKRPLKDGAKTTSPVNEEDNKNEEEDGYNMSDPISKRSKHRASRYSGFSGTGEAENFDNLDYLKIDKTLSKRTISTVNVQLKCSVVILNLQSLVDQRSASIIWPSLKSRKIVLSAPKQIQNEEITAKLIKKNIEVVNMPLNKIVEFSTTIKTLDISIDSNLDNLLKWQRISDSYTVATVVGRLVKESLPQVNNHQKTASRSKLVLKPLHGSSRSHKTGALSIGDVRLAQLKKLLTEKNYIAEFKGEGTLVINEKVAVRKINDAETIIDGTPSELFDTVKKLVTDMLAKI
- binding [3]: binds
